Measurements: publication PMC3605572
These are yes or no findings as the source states them, for the method shown. In cells and extracts the contact can be indirect. Some binding calls cover weakened binding; strength is not graded here.

Protein sequences, listed by entry. Tags and fused reporters are not part of them.
UniProt Q9UKV8: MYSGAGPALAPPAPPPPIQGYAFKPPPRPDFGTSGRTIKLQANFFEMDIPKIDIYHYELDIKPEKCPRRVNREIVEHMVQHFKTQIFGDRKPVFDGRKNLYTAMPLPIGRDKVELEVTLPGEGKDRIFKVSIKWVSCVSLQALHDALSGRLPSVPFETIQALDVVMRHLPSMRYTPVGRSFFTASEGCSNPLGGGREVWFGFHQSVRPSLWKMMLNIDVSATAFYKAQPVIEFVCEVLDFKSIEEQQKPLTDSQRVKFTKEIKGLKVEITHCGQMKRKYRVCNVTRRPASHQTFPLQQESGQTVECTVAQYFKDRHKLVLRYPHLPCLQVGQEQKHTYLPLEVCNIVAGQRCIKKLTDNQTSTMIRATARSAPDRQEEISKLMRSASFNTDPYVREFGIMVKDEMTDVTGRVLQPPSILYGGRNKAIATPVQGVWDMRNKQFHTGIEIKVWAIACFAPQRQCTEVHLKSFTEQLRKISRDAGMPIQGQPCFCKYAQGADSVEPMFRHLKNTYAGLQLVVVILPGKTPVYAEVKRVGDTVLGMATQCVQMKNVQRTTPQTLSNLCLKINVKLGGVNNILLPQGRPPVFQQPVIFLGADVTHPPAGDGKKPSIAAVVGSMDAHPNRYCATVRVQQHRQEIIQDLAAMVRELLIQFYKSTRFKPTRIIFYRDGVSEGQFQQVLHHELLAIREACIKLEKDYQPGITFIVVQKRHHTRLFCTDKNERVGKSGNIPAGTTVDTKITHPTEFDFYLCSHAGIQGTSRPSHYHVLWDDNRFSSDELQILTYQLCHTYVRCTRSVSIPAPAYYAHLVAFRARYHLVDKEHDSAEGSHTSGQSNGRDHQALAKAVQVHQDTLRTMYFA
UniProt Q9UPY3: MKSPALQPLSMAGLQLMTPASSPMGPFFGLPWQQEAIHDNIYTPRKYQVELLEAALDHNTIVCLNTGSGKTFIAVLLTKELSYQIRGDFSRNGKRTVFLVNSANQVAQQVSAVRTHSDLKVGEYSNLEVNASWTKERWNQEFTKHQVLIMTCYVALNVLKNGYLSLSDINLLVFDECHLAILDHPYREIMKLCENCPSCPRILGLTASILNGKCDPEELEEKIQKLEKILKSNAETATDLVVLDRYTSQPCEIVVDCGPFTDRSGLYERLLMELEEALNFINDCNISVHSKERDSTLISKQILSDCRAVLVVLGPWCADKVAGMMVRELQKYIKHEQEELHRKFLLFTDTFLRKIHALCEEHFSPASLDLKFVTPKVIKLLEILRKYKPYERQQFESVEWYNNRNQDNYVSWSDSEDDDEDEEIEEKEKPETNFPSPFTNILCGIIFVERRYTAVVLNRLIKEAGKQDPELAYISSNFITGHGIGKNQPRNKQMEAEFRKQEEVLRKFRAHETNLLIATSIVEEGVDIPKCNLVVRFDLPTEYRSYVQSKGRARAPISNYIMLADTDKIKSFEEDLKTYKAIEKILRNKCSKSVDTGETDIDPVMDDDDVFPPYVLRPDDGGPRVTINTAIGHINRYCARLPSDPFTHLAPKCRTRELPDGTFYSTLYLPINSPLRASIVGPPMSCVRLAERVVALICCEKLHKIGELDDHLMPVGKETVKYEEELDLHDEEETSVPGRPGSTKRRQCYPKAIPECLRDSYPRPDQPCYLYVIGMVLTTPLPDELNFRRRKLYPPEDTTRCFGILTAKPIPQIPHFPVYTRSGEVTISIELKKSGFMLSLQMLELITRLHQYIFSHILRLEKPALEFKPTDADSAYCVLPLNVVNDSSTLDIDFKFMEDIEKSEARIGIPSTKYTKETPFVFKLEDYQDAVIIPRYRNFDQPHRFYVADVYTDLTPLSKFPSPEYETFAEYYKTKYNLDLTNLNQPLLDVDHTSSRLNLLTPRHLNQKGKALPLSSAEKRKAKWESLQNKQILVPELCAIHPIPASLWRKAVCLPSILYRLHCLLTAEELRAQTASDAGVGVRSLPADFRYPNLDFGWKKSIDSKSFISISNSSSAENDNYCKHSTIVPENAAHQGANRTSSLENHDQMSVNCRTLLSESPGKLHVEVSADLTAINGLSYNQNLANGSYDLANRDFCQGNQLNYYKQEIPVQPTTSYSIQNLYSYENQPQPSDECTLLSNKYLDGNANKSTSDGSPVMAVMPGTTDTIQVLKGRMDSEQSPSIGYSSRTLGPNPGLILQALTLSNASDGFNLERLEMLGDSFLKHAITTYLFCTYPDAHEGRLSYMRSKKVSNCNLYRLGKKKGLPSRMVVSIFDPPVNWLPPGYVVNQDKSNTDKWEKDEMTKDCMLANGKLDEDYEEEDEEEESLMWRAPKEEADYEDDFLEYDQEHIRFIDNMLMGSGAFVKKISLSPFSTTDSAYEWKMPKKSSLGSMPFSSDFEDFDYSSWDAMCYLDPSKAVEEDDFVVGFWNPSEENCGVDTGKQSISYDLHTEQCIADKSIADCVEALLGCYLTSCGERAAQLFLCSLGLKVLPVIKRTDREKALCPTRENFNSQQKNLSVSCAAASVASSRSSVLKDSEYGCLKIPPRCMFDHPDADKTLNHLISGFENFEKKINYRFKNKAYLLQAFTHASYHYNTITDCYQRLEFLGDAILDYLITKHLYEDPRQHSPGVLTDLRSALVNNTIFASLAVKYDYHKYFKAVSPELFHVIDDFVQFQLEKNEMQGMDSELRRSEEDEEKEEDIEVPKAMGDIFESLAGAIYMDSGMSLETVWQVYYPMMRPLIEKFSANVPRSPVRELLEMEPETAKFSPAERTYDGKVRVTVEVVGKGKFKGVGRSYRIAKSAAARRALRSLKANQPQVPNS

Molecular target: FLAG-HA-AGO2 (UniProt Q9UKV8)
Assay: co-IP; extracts of HEK293 stably expressing FLAG-HA-AGO2 and transfected with NHA-DICER1, with or without digestion by purified gp63; FLAG-HA-AGO2 immunoprecipitated with anti-FLAG M2 affinity gel; associated DICER1 detected by western blot

binding: binds
Substance: NHA-DICER1 (from UniProt Q9UPY3 1-1922) (enzyme)
